# Where a name gives a salt, the structure may show the parent alone. The list shows a part of the results. Single values are uncertain, as repeats are few or missing.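 Labelled rat cortical synaptosomes were engulfed by primary human fetal astrocytes. Engulfment equaled a red/green ratio, corrected for calcein live-cell signal and normalized to the plate median. Compounds were toxic when calcein dropped over 30%, and reduced phagocytosis when below 70% of the median above 5 µM.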
# How the values were obtained:
# Human fetal astrocytes [1] = assay: loss of total cells relative to no-compound high-control median (toxicity); higher = more toxic (fewer cells); conditions: 24 h
# Human fetal astrocytes [2] = assay: synaptosome phagocytosis (pHrodo/calcein intensity ratio) relative to plate median of data wells; higher = more phagocytosis; conditions: 24 h
SMILES,loss of total cells (Human fetal astrocytes [1]; 1.39 µM) [%],loss of total cells (Human fetal astrocytes [1]; 2.78 µM) [%],loss of total cells (Human fetal astrocytes [1]; 5.56 µM) [%],loss of total cells (Human fetal astrocytes [1]; 11.11 µM) [%],loss of total cells (Human fetal astrocytes [1]; 22.22 µM) [%],synaptosome phagocytosis (Human fetal astrocytes [2]; 1.39 µM) [%],synaptosome phagocytosis (Human fetal astrocytes [2]; 2.78 µM) [%],synaptosome phagocytosis (Human fetal astrocytes [2]; 5.56 µM) [%],synaptosome phagocytosis (Human fetal astrocytes [2]; 11.11 µM) [%],synaptosome phagocytosis (Human fetal astrocytes [2]; 22.22 µM) [%]
N[C@@H](COP(=O)(O)O)C(=O)O [O-Phospho-L-serine],-20.4,-8.6,-9.9,-9.5,4.7,114,133,121,129,127
Cn1cc(C2=C(c3ccc(Cl)cc3Cl)C(=O)NC2=O)c2ccccc21,-38.4,-3.2,4.2,13.3,2.8,105,105,118,105,123
CC(=O)SCC[N+](C)(C)C [Acetylthiocholine chloride],-11,-5.7,-16.1,-21.1,-2.6,95,91.2,106,112,105
CC(C)(C=O)Cc1cc(C(C)(C)C)c(O)c(C(C)(C)C)c1,-11,-12,-2.3,-16.6,7.9,80.8,65,106,88.3,87.5
C=C/C(C)=C/[C@@]1(C)SC(=O)C(C)=C1O [Thiolactomycin],-10.9,12.2,1.4,-1,15,84,101,129,106,104
NCC(O)(CS(=O)(=O)O)c1ccc(Cl)cc1 (stereo not given) [2-Hydroxysaclofen],-19.4,-1.8,-6.9,8.5,19.2,71.3,72.9,83.8,96.2,99.5
S=C(S)OC1CC2CC1C1CCCC21 [D-609 potassium],-26.4,-25.4,-7.9,1.1,-18.9,99.4,108,116,103,93.3
COc1cc2c(cc1C(F)(F)F)N(C(=O)Nc1cc(F)cc(-c3cccnc3)c1)CC2,7.9,-0.9,17.3,-10.3,-5.6,121,110,94.4,87.3,97.6
Nc1ncnc2c1ncn2C1OC(C(=O)NC2CC2)C(O)C1O (stereo not given) [5'-(N-Cyclopropyl)carboxamidoadenosine],1.5,-8.1,-18,-14.8,-10.2,121,62.9,78.9,103,107
O=[N+]([O-])c1ccc(CSc2ncnc3c2ncn3[C@@H]2O[C@H](CO)[C@@H](O)[C@H]2O)cc1 [S-(4-Nitrobenzyl)-6-thioinosine],-10.9,-6.8,6.1,14.3,-6.5,115,92.4,110,95.1,105
O=C(CCCN1CCC(O)(c2cccc(C(F)(F)F)c2)CC1)c1ccc(F)cc1 [Trifluperidol hydrochloride],-14,-29.6,-1.7,-1.1,-12.3,91.3,111,98.1,101,78.7
O=C(O)/C=C/c1cnc[nH]1 [4-Imidazoleacrylic acid],-17.1,-35.6,7.9,-27.2,-30.5,87.3,123,93.6,136,125
O=c1ccn([C@@H]2O[C@H](COP(=O)(O)OP(=O)(O)O)[C@@H](O)[C@H]2O)c(=O)[nH]1 [Uridine 5'-diphosphate sodium],-12.7,-23.1,-6.7,-21.1,-26.3,111,111,116,94.9,117
C1COC(NC(C2CC2)C2CC2)=N1 [Rilmenidine hemifumarate],-20.2,-25.4,-1.7,-23.4,-11.5,98.8,105,118,116,82.8
Cc1[nH]c(=O)c(C#N)cc1-c1ccncc1 [Milrinone],2.4,0.5,22.1,7.6,17.8,94.3,120,101,96.7,80.3
Cn1cc(C(F)(F)F)nc1-c1ccc(OCC(O)CNCCOc2ccc(O)c(C(N)=O)c2)cc1 (stereo not given),-2.9,-3.4,4.9,-6.7,30.4,89.3,93.3,100,65.7,81.2
Clc1ccc(C(c2ccc(Cl)cc2)[n+]2ccn(CC(OCc3ccc(Cl)cc3Cl)c3ccc(Cl)cc3Cl)c2)cc1 (stereo not given) [Calmidazolium chloride],-1.8,-14.7,-36.4,-3.1,65.8,110,111,88.8,75.1,58.5
CCN1C(=O)C=CC1=O [N-Ethylmaleimide],4.6,-22.2,1.6,-9.4,-8,86.1,81.4,87.6,83.5,95.3
N#C/C(=C\c1ccc(O)c(O)c1)C(=O)NCCCc1ccccc1 [Tyrphostin AG 555],-11.5,-31.4,-4.5,3.4,-9.1,104,95.3,89.9,130,62
c1cc(CN2CCCCC2)cc(OCCCNc2nc3ccccc3s2)c1,-17.1,-32.6,-8.4,8,-9.9,60,90.2,97.9,101,79.1

# Molecules from the list above with nitrogen in an aromatic ring, in the order listed:
SMILES,loss of total cells (Human fetal astrocytes [1]; 1.39 µM) [%],loss of total cells (Human fetal astrocytes [1]; 2.78 µM) [%],loss of total cells (Human fetal astrocytes [1]; 5.56 µM) [%],loss of total cells (Human fetal astrocytes [1]; 11.11 µM) [%],loss of total cells (Human fetal astrocytes [1]; 22.22 µM) [%],synaptosome phagocytosis (Human fetal astrocytes [2]; 1.39 µM) [%],synaptosome phagocytosis (Human fetal astrocytes [2]; 2.78 µM) [%],synaptosome phagocytosis (Human fetal astrocytes [2]; 5.56 µM) [%],synaptosome phagocytosis (Human fetal astrocytes [2]; 11.11 µM) [%],synaptosome phagocytosis (Human fetal astrocytes [2]; 22.22 µM) [%]
Cn1cc(C2=C(c3ccc(Cl)cc3Cl)C(=O)NC2=O)c2ccccc21,-38.4,-3.2,4.2,13.3,2.8,105,105,118,105,123
COc1cc2c(cc1C(F)(F)F)N(C(=O)Nc1cc(F)cc(-c3cccnc3)c1)CC2,7.9,-0.9,17.3,-10.3,-5.6,121,110,94.4,87.3,97.6
Nc1ncnc2c1ncn2C1OC(C(=O)NC2CC2)C(O)C1O (stereo not given) [5'-(N-Cyclopropyl)carboxamidoadenosine],1.5,-8.1,-18,-14.8,-10.2,121,62.9,78.9,103,107
O=[N+]([O-])c1ccc(CSc2ncnc3c2ncn3[C@@H]2O[C@H](CO)[C@@H](O)[C@H]2O)cc1 [S-(4-Nitrobenzyl)-6-thioinosine],-10.9,-6.8,6.1,14.3,-6.5,115,92.4,110,95.1,105
O=C(O)/C=C/c1cnc[nH]1 [4-Imidazoleacrylic acid],-17.1,-35.6,7.9,-27.2,-30.5,87.3,123,93.6,136,125
O=c1ccn([C@@H]2O[C@H](COP(=O)(O)OP(=O)(O)O)[C@@H](O)[C@H]2O)c(=O)[nH]1 [Uridine 5'-diphosphate sodium],-12.7,-23.1,-6.7,-21.1,-26.3,111,111,116,94.9,117
Cc1[nH]c(=O)c(C#N)cc1-c1ccncc1 [Milrinone],2.4,0.5,22.1,7.6,17.8,94.3,120,101,96.7,80.3
Cn1cc(C(F)(F)F)nc1-c1ccc(OCC(O)CNCCOc2ccc(O)c(C(N)=O)c2)cc1 (stereo not given),-2.9,-3.4,4.9,-6.7,30.4,89.3,93.3,100,65.7,81.2
Clc1ccc(C(c2ccc(Cl)cc2)[n+]2ccn(CC(OCc3ccc(Cl)cc3Cl)c3ccc(Cl)cc3Cl)c2)cc1 (stereo not given) [Calmidazolium chloride],-1.8,-14.7,-36.4,-3.1,65.8,110,111,88.8,75.1,58.5
c1cc(CN2CCCCC2)cc(OCCCNc2nc3ccccc3s2)c1,-17.1,-32.6,-8.4,8,-9.9,60,90.2,97.9,101,79.1

# (cont.)

SMILES,loss of total cells (Human fetal astrocytes [1]; 1.39 µM) [%],loss of total cells (Human fetal astrocytes [1]; 2.78 µM) [%],loss of total cells (Human fetal astrocytes [1]; 5.56 µM) [%],loss of total cells (Human fetal astrocytes [1]; 11.11 µM) [%],loss of total cells (Human fetal astrocytes [1]; 22.22 µM) [%],synaptosome phagocytosis (Human fetal astrocytes [2]; 1.39 µM) [%],synaptosome phagocytosis (Human fetal astrocytes [2]; 2.78 µM) [%],synaptosome phagocytosis (Human fetal astrocytes [2]; 5.56 µM) [%],synaptosome phagocytosis (Human fetal astrocytes [2]; 11.11 µM) [%],synaptosome phagocytosis (Human fetal astrocytes [2]; 22.22 µM) [%]
COc1cccc(C(=O)NCCN2CCN(c3ccc(Cl)cc3)CC2)c1,-21.3,-17.1,-18,-5.8,11.7,81.5,95.9,95.5,97.7,127
COc1c2c(nc3ccccc13)OC(C(C)(O)CO)C2 (stereo not given) [Dubinidine],14.6,-14.5,-1.6,-0.4,1.6,149,126,120,95.9,121
C[C@@H](NC(=O)/C(C#N)=C/c1ccc(O)c(O)c1)c1ccccc1 [Tyrphostin AG 527],-24.5,-11.7,-5.6,-14.9,-32.1,116,98.2,116,121,95.1
N#Cc1cc2nc(O)c(O)nc2cc1[N+](=O)[O-] [CNQX disodium],-10.5,-15.4,-10.7,-16.6,-12,100,92.4,90.3,91,86.6
"O=C(O)Cc1ccc(O)c(O)c1 [3,4-Dihydroxyphenylacetic acid]",14.6,-0.9,4.9,4,4,67.7,127,122,125,133
Cn1cnc2c(NCc3ccccc3)nc(NCCO)nc21 [Olomoucine],-28,2.3,-1.4,-7.6,6.5,87,139,122,100,136
CCn1ccnc1CC1COc2ccccc2O1 (stereo not given) [Imiloxan hydrochloride],-16.6,8.6,0.5,14.3,13.1,78.2,57.3,66.9,113,68.6
N=C(N)c1ccc(N)cc1 [4-Aminobenzamidine dihydrochloride],-34.5,-21.1,-25.3,-13,3.4,87.3,91.1,62.7,124,81.9
"C#CCn1c(=O)c2c(ncn2C)n(C)c1=O [3,7-Dimethyl-I-propargylxanthine]",-0.4,-14.5,-4.9,-15.7,-2.4,104,107,103,118,109
"Cc1ccc(OCC(O)C(C)NC(C)C)c2c1CCC2 (stereo not given) [ICI 118,551 hydrochloride]",5.2,13.1,-9.9,13.3,3.7,106,113,91.7,102,71.9
O=C1Nc2ccc(I)cc2/C1=C/c1cc(Br)c(O)c(Br)c1,2.1,-17.9,3.3,6.7,32.8,96.1,82.7,83.4,58.3,67.1
CC1(C)CCC2=C(O1)c1ccccc1C(=O)C2=O [beta-Lapachone],-15.6,4.1,4.2,13.3,24.3,80.4,94.1,83.2,56.5,65.5
COC(=O)c1c(C)[nH]c(C)c1C(=O)c1ccccc1Cc1ccccc1,3.8,-35.9,-11.5,-14.8,-2.4,125,119,89.7,96.5,128
NCCC[C@](N)(C(=O)O)C(F)F (racemic) [DL-alpha-Difluoromethylornithine hydrochloride],-16.3,-1.7,-4.9,-9.4,-17.6,86.2,117,92.5,86.8,93.4
Cc1cc(O)c2c(c1)C(=O)c1cc(O)cc(O)c1C2=O [Emodin],-12.1,-17.1,0,-6.7,0.8,100,103,99.8,81.7,73.3
N[C@@H](CCC(=O)N[C@@H](CSN=O)C(=O)NCC(=O)O)C(=O)O [S-Nitrosoglutathione],1.4,14,5.2,22.9,16.8,84.8,114,106,130,126
NC[C@@H]1O[C@H](C23CC4CC(CC(C4)C2)C3)Cc2c1ccc(O)c2O,-29.7,-9.3,-8.8,-18.4,24.4,81.5,94.1,102,97.1,71.7
[N-]=[N+]=Nc1ccc(C(=O)CSC[C@H](NC(=O)CC[C@H](N)C(=O)O)C(=O)NCC(=O)O)cc1 [S-(p-Azidophenacyl)glutathione],-8.1,-4.8,-11.5,-7.6,1.9,118,96,99,82,92.6
"O=c1oc(Cl)c(Cl)c2ccccc12 [3,4-Dichloroisocoumarin]",14.6,-23.1,-1.6,-2.2,4,111,110,95.8,108,93.1
CCCCOC(=O)NS(=O)(=O)c1sc(CC(C)C)cc1-c1ccc(Cn2c(CC)nc3c(C)cc(C)nc32)cc1,-1.4,0.5,1.4,-4.8,21.5,82.2,103,94,86.7,70.6
